Here are results for 1 molecule from patent US20060183889A1, “Alkyl phosphine detergent products and extraction processes” (priority 2005, published 2006).

The data set is described as follows: Compatibility with protein detection reagents. The settings on record: detergent present.

The structures appear in SMILES notation.

Regarding `CCCCCCCCCCP(C)(C)=O` [APO-10, Dimethyldecylphosphine oxide], the “interference with detection of Chloramphenicol Acetyl Transferase (CAT) by Lumio protein detection agent” value is “without interference” and the “interference with detection of beta-galactosidase by InVision protein detection agent” value is on record as “without interference”.
